Test results published in the supplement of paper PMC10300260.
The list shows a part of the results. Single values are uncertain, as repeats are few or missing.

Test system: TcK2 kinase domain KD5 (eIF2alpha kinase TcYC6_0089220, Trypanosoma cruzi)
Assay: thermal shift (delta Tm vs DMSO); higher = stronger stabilisation / binding
Details: compound: 2 ul of 1 mM stock per well; protein concentration: 2 uM

SMILES	thermal shift
CCc1ccc(/C=C2/SC(=S)NC2=O)cc1	-0.548 °C
CCN(CCCOc1ccc2c(Nc3cc(CC(=O)Nc4cccc(F)c4)[nH]n3)ncnc2c1)CCOP(=O)(O)O [Barasertib (AZD1152-HQPA)]	0.494 °C
COc1cc(Nc2nc3ccccc3nc2NS(=O)(=O)c2ccc(NC(=O)c3ccc(C)c(OC)c3)cc2)cc(OC)c1	-0.169 °C
N#Cc1c(O)c2c(-c3ccc(-c4ccccc4O)cc3)csc2[nH]c1=O	-0.0351 °C
N#CC(=C(/N)Sc1ccccc1N)/C(C#N)=C(\N)Sc1ccccc1N	-0.405 °C
Cn1cc(-c2cnn3c(N)c(Br)c([C@@H]4CCCNC4)nc23)cn1	0.254 °C
Cc1ccccc1-n1c(Cn2nc(-c3cccc(O)c3)c3c(N)ncnc32)nc2cccc(C)c2c1=O	-0.166 °C
O=C(/C=C/c1ccc2ccccc2n1)c1ccncc1	-2.3 °C
CC(C)c1cnn2c(NCc3ccccc3)cc(NCCCCCCN)nc12	-0.123 °C
